This test deals with BDF1 mice, P388 leukemia ip, median survival T/C. Kind of test: NCI In Vivo Anticancer Drug Screen. Data for tumor model P388 Leukemia (intraperitoneal) in B6D2F1 (BDF1) mice. The conditions noted are these: T/C endpoint: median survival time, higher T/C = longer survival. In a few lines: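 Steps: implant the tumour, treat one group with compound and another with vehicle, record survival, then divide treated by control.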

Setting [1] is: dose: 100.0 mg/kg/injection, schedule: Q01DX009 (ip), vehicle: saline with Tween-80.
The mark [2] stands for this setting: dose: 100.0 mg/kg/injection, schedule: Q04DX003 (ip), vehicle: saline.
Where [3] appears, read: dose: 200.0 mg/kg/injection, schedule: Q04DX003 (ip), vehicle: saline.
The mark [4] stands for this setting: dose: 400.0 mg/kg/injection, schedule: Q04DX003 (ip), vehicle: saline.
[5] abbreviates: dose: 12.5 mg/kg/injection, schedule: Q01DX009 (ip), vehicle: saline with Tween-80.
Setting [6] is: dose: 100.0 mg/kg/injection, schedule: Q01DX009 (ip), vehicle: Klucel (hydroxypropylcellulose) (HPC).
Where [7] appears, read: dose: 200.0 mg/kg/injection, schedule: Q01DX009 (ip), vehicle: Klucel (hydroxypropylcellulose) (HPC).
[8] abbreviates: dose: 400.0 mg/kg/injection, schedule: Q01DX009 (ip), vehicle: Klucel (hydroxypropylcellulose) (HPC).
Setting [9] is: dose: 100.0 mg/kg/injection, schedule: Q04DX003 (ip), vehicle: Klucel (hydroxypropylcellulose) (HPC).
The mark [10] stands for this setting: dose: 200.0 mg/kg/injection, schedule: Q04DX003 (ip), vehicle: Klucel (hydroxypropylcellulose) (HPC).
The mark [11] stands for this setting: dose: 400.0 mg/kg/injection, schedule: Q04DX003 (ip), vehicle: Klucel (hydroxypropylcellulose) (HPC).
[12] abbreviates: dose: 4.0 mg/kg/injection, schedule: Q01DX010 (ip), vehicle: saline.

The list does not hold the whole screen: it covers a few groups of compounds. Not every dose and run of a compound is shown. T/C gives the treated animals as a percentage of the vehicle group. Some entries give survivors of the animals treated and no T/C: the source files T/C as zero there, which appears to mark a toxic dose or a test without result, not a measured value. Some doses without a T/C left all or most animals alive at the check, yet need not have been tolerated: the source hardly ever lists a survival T/C far under the control, and the zero likely stands for such cases as well. Counts of survivors are from the toxicity check (mostly the fifth day) where no day follows; animals may have died later. Schedule codes are those of the source, read here as Q, the interval in days (D) or hours (H), X, the number of doses. For survival time, the PubChem record calls one and a half times the control and up active, and a quarter to a half above the control has no call in these data; cut-offs in other NCI protocols can differ. Some doses were run more than once; the values are given in rising order. Some entries show no survivor count and are marked so; the dose need not have been tolerated. Some T/C values carry the count of animals alive at the toxicity check (mostly the fifth day); without a count or a note in brackets, all were alive then.

In the case of `Cc1ccc(Sc2ccc([N+](=O)[O-])cc2[N+](=O)[O-])c([N+](=O)[O-])c1`, the T/C was 104 % of control (dose: 66.0 mg/kg/injection, schedule: Q01DX009 (ip), vehicle: saline with Tween-80); 133 % of control (dose: 100.0 mg/kg/injection, schedule: Q01DX009 (ip), vehicle: saline sonified); 118 % of control [5 of 6 alive] under setting [1]; 90 % of control under setting [2]; 154 % of control (dose: 150.0 mg/kg/injection, schedule: Q01DX009 (ip), vehicle: saline with Tween-80); 145 % of control (dose: 200.0 mg/kg/injection, schedule: Q01DX009 (ip), vehicle: saline sonified). The T/C reads like this: under setting [3], 95 % of control; (dose: 400.0 mg/kg/injection, schedule: Q01DX009 (ip), vehicle: saline sonified) 125 % of control; under setting [4], 100 % of control.
Take `ClCC[N+]1(CCCl)CCCO1`: the T/C (dose: 2.66 mg/kg/injection, schedule: Q01DX009 (ip), vehicle: saline) was 98 % of control; the T/C (dose: 4.0 mg/kg/injection, schedule: Q01DX009 (ip), vehicle: saline) is 123 % of control; the T/C (dose: 4.4 mg/kg/injection, schedule: Q04DX003 (ip), vehicle: saline) was 100 % of control; the T/C (dose: 6.0 mg/kg/injection, schedule: Q01DX009 (ip), vehicle: saline) is 164 % of control; the T/C (dose: 6.25 mg/kg/injection, schedule: Q04DX003 (ip), vehicle: saline) is 140 % of control; the T/C (dose: 6.6 mg/kg/injection, schedule: Q04DX003 (ip), vehicle: saline) is 109 % of control. Moreover, the T/C was 171 % of control (dose: 9.0 mg/kg/injection, schedule: Q01DX009 (ip), vehicle: saline); 136 % of control (dose: 10.0 mg/kg/injection, schedule: Q04DX003 (ip), vehicle: saline); 154 % of control (dose: 12.5 mg/kg/injection, schedule: Q04DX003 (ip), vehicle: saline); 150 % of control (dose: 15.0 mg/kg/injection, schedule: Q04DX003 (ip), vehicle: saline); 143 % of control (dose: 16.5 mg/kg/injection, schedule: Q04DX003 (ip), vehicle: saline); 139 and 204 % of control (dose: 25.0 mg/kg/injection, schedule: Q04DX003 (ip), vehicle: saline). In addition, the T/C (dose: 37.5 mg/kg/injection, schedule: Q04DX003 (ip), vehicle: saline) was 173 % of control.
`O=c1[nH]cc(Nc2c([N+](=O)[O-])cc([N+](=O)[O-])cc2[N+](=O)[O-])c(=O)[nH]1`: the T/C was 100 % of control (dose: 6.25 mg/kg/injection, schedule: Q01DX009 (ip), vehicle: saline with Tween-80); 104 % of control under setting [5]; 100 % of control (dose: 25.0 mg/kg/injection, schedule: Q01DX009 (ip), vehicle: saline with Tween-80).
With `CCCN(CCC)CCCCCCCCCCCN1CCCCC1.O=[N+]([O-])c1cc([N+](=O)[O-])c(S(=O)(=O)O)c([N+](=O)[O-])c1`, the T/C reads like this: under setting [6], 104 % of control; under setting [7], 108 % of control. Under setting [8], the survivor count is 5 of 6.
On to `Nc1c([N+](=O)[O-])cc([N+](=O)[O-])cc1[N+](=O)[O-]`, for which the T/C was 90 % of control [survivor count not shown] under setting [6]; 104 % of control [survivor count not shown] under setting [9]; 100 % of control [survivor count not shown] under setting [7]; 109 % of control [survivor count not shown] under setting [10]; 110 % of control [survivor count not shown] under setting [8]; 100 % of control [survivor count not shown] under setting [11].
Regarding `O=C(O)/C=C\c1cccc(N(CCCl)CCCl)c1`, the survivor count is, setting by setting: (dose: 50.0 mg/kg/injection, schedule: Q01DX009 (ip), vehicle: saline with Tween-80) 3 of 6; under setting [1], 3 of 6; (dose: 200.0 mg/kg/injection, schedule: Q01DX009 (ip), vehicle: saline with Tween-80) 0 of 6. The T/C by setting is: (dose: 100.0 mg/kg/injection, schedule: Q04DX003 (ip), vehicle: saline with Tween-80) 125 % of control; (dose: 132.0 mg/kg/injection, schedule: Q04DX003 (ip), vehicle: saline with Tween-80) 166 % of control; (dose: 150.0 mg/kg/injection, schedule: Q04DX003 (ip), vehicle: saline with Tween-80) 145 % of control.
As to `Cc1[nH]c(=O)[nH]c(=O)c1N(CCCl)CCCl`, the T/C is 109 and 158 % of control (dose: 0.5 mg/kg/injection, schedule: Q01DX010 (ip), vehicle: saline); 150 and 175 % of control (dose: 1.0 mg/kg/injection, schedule: Q01DX010 (ip), vehicle: saline); 129 and 150 % of control (dose: 2.0 mg/kg/injection, schedule: Q01DX010 (ip), vehicle: saline); 218 % of control under setting [12]. Moreover, the survivor count under setting [12] was 5 of 6.
As for `CC1CCCCN1.C[CH2][Sn]([Br])([CH2]C)[CH2]C`, the T/C is 122 % of control (dose: 0.75 mg/kg/injection, schedule: Q01DX009 (ip), vehicle: Klucel (hydroxypropylcellulose) (HPC)); 106 % of control (dose: 1.5 mg/kg/injection, schedule: Q01DX009 (ip), vehicle: Klucel (hydroxypropylcellulose) (HPC)); 103 % of control (dose: 3.0 mg/kg/injection, schedule: Q01DX009 (ip), vehicle: Klucel (hydroxypropylcellulose) (HPC)); 111 % of control [5 of 6 alive] (dose: 6.0 mg/kg/injection, schedule: Q01DX009 (ip), vehicle: Klucel (hydroxypropylcellulose) (HPC)); 123 % of control [5 of 6 alive] (dose: 12.0 mg/kg/injection, schedule: Q01DX009 (ip), vehicle: Klucel (hydroxypropylcellulose) (HPC)).
Consider `O=[N+]([O-])c1cc([N+](=O)[O-])c2ccc3c([N+](=O)[O-])cc([N+](=O)[O-])c4ccc1c2c43`, for which the T/C under setting [9] was 105 % of control [5 of 6 alive], the T/C under setting [10] was 105 % of control and the T/C under setting [11] is 111 % of control.
With `NP(N)(=O)N(CCCl)CCCl`, the T/C is 100 % of control under setting [2], 113 % of control under setting [3] and 113 % of control under setting [4].
Take `O=C(O)COc1ccc(N(CCCl)CCCl)cc1`: the T/C is 219 % of control (dose: 8.0 mg/kg/injection, schedule: Q01DX009 (ip), vehicle: saline with Tween-80); 150 % of control (dose: 8.2 mg/kg/injection, schedule: Q01DX009 (ip), vehicle: saline with Tween-80); 230 % of control (dose: 12.0 mg/kg/injection, schedule: Q01DX009 (ip), vehicle: saline with Tween-80). The survivor count is listed as 6 of 6 under setting [5]; 6 of 6 (dose: 18.0 mg/kg/injection, schedule: Q01DX009 (ip), vehicle: saline with Tween-80); 6 of 6 (dose: 18.75 mg/kg/injection, schedule: Q01DX009 (ip), vehicle: saline with Tween-80).

The values are drawn from PubChem BioAssay AID328 (DTP/NCI, 2004).
